Reference: US20070218555A1, “Anti-Microbial Activity Of Biologically Stabilized Silver Nano Particles” (priority 2004, published 2007)
Some entries share one result that the patent states for a list of compounds.

Test system: Pseudomonas aeruginosa MDR strain
Assay: Interaction of drugs with silver nano particles, checkerboard macrodilution (FICI)
Format: cell-based
Settings: drug in combination with biologically stabilized silver nano particles
Experimental: Interaction of drugs with biologically stabilized silver nano particles. A two-dimensional checkerboard macrodilution technique was used to characterize interactions between biologically stabilized silver nano particles and drug (viz. Gentamicin, Penicillin, Cefotaxime, Ceptazidime, Kanamycin, Vancomycin). six experiments were performed for Pseudomonas aeruginosa MDR strain described above. Inoculum was prepared similarly to those for susceptibility testing. Individual drug with biologically stabilized silver nano particles were diluted in serial twofold dilutions, and concentrations ranged from four fold below to four folds above the MIC. The highest dilution of the drug combination with biologically stabilized silver nano particles that inhibits the visible growth of the test organism was regarded as the fractional inhibitory concentration (FIC). The fractional inhibitory concentration (FIC) index (FICI) was used to define the interaction between the two drugs. The FICI is the sum of the FICs of each of the drugs. The FIC was calculated as follows: MIC of the drug tested in combination/MIC of the drug tested alone. The interaction was defined as synergistic if the FICI was […], as additive if the FICI was >0.5 to 1.0, as indifferent if the FICI was >1.0 to 2.0, and as antagonistic if the FICI was >2.0.

## CN[C@H](CC(C)C)C(=O)N[C@H]1C(=O)N[C@@H](CC(N)=O)C(=O)N[C@H]2C(=O)N[C@H]3C(=O)N[C@H](C(=O)N[C@H](C(=O)O)c4cc(O)cc(O)c4-c4cc3ccc4O)[C@H](O)c3ccc(c(Cl)c3)Oc3cc2cc(c3O[C@@H]2O[C@H](CO)[C@@H](O)[C@H](O)[C@H]2O[C@H]2C[C@](C)(N)[C@H](O)[C@H](C)O2)Oc2ccc(cc2Cl)[C@H]1O [vancomycin]
  interaction by mean FICI: antagonistic (antagonistic if the FICI was >2.0)

## penicillin
  interaction by mean FICI: indifferent (indifferent if the FICI was >1.0 to 2.0)
